25 compounds from the supplement of paper PMC10727501 can be followed below.

The list shows a part of the results. Repeats in this data set agree poorly, so a single value says little.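 Free-swimming zebrafish larvae were assessed for O-bend response probability to dark flashes (naive: first five; training: remaining flashes across four 60-flash blocks; test: later 60-flash block) and for OMR turning toward alternating leftward/rightward LED motion. Six treated larvae were compared against sixty 0.1% DMSO controls; hits required |SSMD|≥2.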

Common to all, as to conditions: 10 µM; pre-incubation: 30-90 min
Test [1] deals with Danio rerio larvae (5 dpf, TLF). Description: OMR-Perf (SSMD vs DMSO vehicle); higher = higher than vehicle (e.g. higher dark-flash O-bend response probability, or better optomotor performance).
Test [2] has the same test system. Description: Prob-Test (SSMD vs DMSO vehicle); higher = higher than vehicle (e.g. higher dark-flash O-bend response probability, or better optomotor performance).
The test system is the same in test [3]. Description: Prob-Naive (SSMD vs DMSO vehicle); higher = higher than vehicle (e.g. higher dark-flash O-bend response probability, or better optomotor performance).
The test system is the same in test [4]. Description: Prob-Train (SSMD vs DMSO vehicle); higher = higher than vehicle (e.g. higher dark-flash O-bend response probability, or better optomotor performance).

As for `O=C(NC(Cc1cc(=O)[nH]c2ccccc12)C(=O)O)c1ccc(Cl)cc1` (stereo not given) [Rebamipide], in test [1], the OMR-Perf is -0.154. This compound also had a Prob-Test in test [2] of 0.315. In test [3], this compound showed a Prob-Naive of -0.337. In test [4], this compound registered a Prob-Train of -0.0496.

The compound `C[C@H](N)[C@H](O)c1cccc(O)c1` [Metaraminol Bitartrate] displayed an OMR-Perf in test [1] of -0.00672. In test [2], this compound gave a Prob-Test of -0.0887. The Prob-Naive in test [3] came out at 0.433. Moreover, in test [4], the Prob-Train was 0.0899.

As for `CNC1CCCN(c2c(F)cc3c(=O)c(C(=O)O)cn(C4CC4)c3c2OC)C1` (stereo not given) [Balofloxacin], the OMR-Perf in test [1] was -0.237. Besides, in test [2], the Prob-Test is -0.911. For the same compound, the Prob-Naive in test [3] was -0.485. Further, the Prob-Train in test [4] is -0.321.

Take `CN(C)CCCN1c2ccccc2CCc2ccccc21.Cl` [Imipramine HCl]: the OMR-Perf in test [1] is -0.305. This compound also displayed a Prob-Test in test [2] of -0.903. Further, in test [3], the Prob-Naive was 0.163. Further, the Prob-Train in test [4] is 0.171.

In test [1], `COc1ccc(C2C(=O)c3ccccc3C2=O)cc1` [Anisindione] gave an OMR-Perf of 0.101. For the same compound, the Prob-Test in test [2] is -0.0596. The compound further had a Prob-Naive in test [3] of -0.201. The same compound had a Prob-Train in test [4] of -0.187.

`CC(C)NC[C@@H](C(=O)N1CCN(c2ncnc3c2[C@H](C)C[C@H]3O)CC1)c1ccc(Cl)cc1` gave an OMR-Perf in test [1] of 0.311. This compound came in with a Prob-Test in test [2] of 0.26. Further, in test [3], the Prob-Naive stood at 0.538. In addition, the Prob-Train in test [4] was -0.114.

In turn, `CC(=O)OCC[N+](C)(C)C.[Cl-]` [Acetylcholine Chloride] gave an OMR-Perf in test [1] of -0.338. Moreover, the Prob-Test in test [2] came out at 0.344. The Prob-Naive in test [3] was determined as 0.357. For the same compound, the Prob-Train in test [4] amounted to 0.275.

As to `COC(=O)CCc1ccc(OCC(O)CNC(C)C)cc1.Cl` (stereo not given) [Esmolol HCl], in test [1], the OMR-Perf is 0.647. The Prob-Test in test [2] came to 0.231. This compound had a Prob-Naive in test [3] of 0.263. This compound yielded a Prob-Train in test [4] of 0.655.

With `CCc1cc2c(cc1CC)CC(NC[C@H](O)c1ccc(O)c3[nH]c(=O)ccc13)C2.O=C(O)/C=C/C(=O)O` [Indacaterol Maleate], the OMR-Perf in test [1] is -0.073. For the same compound, the Prob-Test in test [2] stood at 0.79. The compound further returned a Prob-Naive in test [3] of 0.391. In test [4], this compound returned a Prob-Train of 0.556.

Compound `O=C(/C=C/c1cccnc1)NCCCCC1CCN(C(=O)c2ccccc2)CC1` yielded an OMR-Perf in test [1] of 0.149. Also, the Prob-Test in test [2] worked out at 0.2. This compound registered a Prob-Naive in test [3] of -0.163. Also, the Prob-Train in test [4] is -0.00266.

Compound `CS(=O)(=O)O.OC(CCN1CCCCC1)(c1ccccc1)c1ccccc1` [Pridinol Methanesulfonate] registered an OMR-Perf in test [1] of -0.828. In test [2], the Prob-Test is -0.547. Moreover, in test [3], the Prob-Naive is -0.119. Also, the Prob-Train in test [4] is -0.345.

In test [1], `O=C(CCCCCCNC(=O)c1cnc(N(c2ccccc2)c2ccccc2)nc1)NO` [Rocilinostat (ACY-1215)] displayed an OMR-Perf of 0.252. In test [2], the Prob-Test was -0.0767. Further, the Prob-Naive in test [3] was -0.0813. Also, the Prob-Train in test [4] was determined as 0.248.

`COC1CCN(C(=O)c2cc(Cc3n[nH]c(=O)c4ccccc34)ccc2F)CC1` came in with an OMR-Perf in test [1] of -0.0251. The compound also displayed a Prob-Test in test [2] of 0.44. This compound also gave a Prob-Naive in test [3] of 0.446. This compound also showed a Prob-Train in test [4] of 0.558.

Compound `COc1ccc(C2CNC(=O)C2)cc1OC1CCCC1` (stereo not given) [Rolipram] had an OMR-Perf in test [1] of -0.18. In test [2], the Prob-Test stood at 0.42. The same compound showed a Prob-Naive in test [3] of -1.01. In test [4], this compound registered a Prob-Train of -0.397.

In test [1], `CC#CCn1c(N2CCC[C@@H](N)C2)nc2c1c(=O)n(Cc1nc(C)c3ccccc3n1)c(=O)n2C` [Linagliptin] came in with an OMR-Perf of 0.322. Moreover, in test [2], the Prob-Test was -0.158. This compound displayed a Prob-Naive in test [3] of 0.0934. In test [4], the Prob-Train was -0.468.

Take `COc1cc2nc(N3CCN(C(=O)C4COc5ccccc5O4)CC3)nc(N)c2cc1OC.CS(=O)(=O)O` (stereo not given) [Doxazosin Mesylate]: in test [1], the OMR-Perf was -0.598. This compound also displayed a Prob-Test in test [2] of -0.888. In test [3], this compound came in with a Prob-Naive of -0.0319. Moreover, the Prob-Train in test [4] is -0.478.

`CN1CC[C@H](c2c(O)cc(O)c3c(=O)cc(-c4ccccc4Cl)oc23)[C@H](O)C1.Cl` [Flavopiridol HCl] came in with an OMR-Perf in test [1] of -0.512. This compound yielded a Prob-Test in test [2] of -1.05. The compound further yielded a Prob-Naive in test [3] of 0.148. In test [4], this compound showed a Prob-Train of 0.389.

`COc1ccc2cccc(CCNC(C)=O)c2c1` [Agomelatine]: the OMR-Perf in test [1] is -0.445. Also, the Prob-Test in test [2] was -1.68. In test [3], the Prob-Naive was -1.37. The same compound yielded a Prob-Train in test [4] of -2.58.

In the case of `CCOc1nc2cccc(C(=O)OC(C)OC(=O)OC3CCCCC3)c2n1Cc1ccc(-c2ccccc2-c2nnn[nH]2)cc1` (stereo not given) [Candesartan Cilexetil], the OMR-Perf in test [1] stood at 0.482. For the same compound, the Prob-Test in test [2] is -0.341. The compound also registered a Prob-Naive in test [3] of 0.506. The compound also displayed a Prob-Train in test [4] of -0.0192.

In turn, `CC[C@@H]1C(=O)N(C)c2cnc(Nc3ccc(C(=O)NC4CCN(C)CC4)cc3OC)nc2N1C1CCCC1` came in with an OMR-Perf in test [1] of 0.473. Further, in test [2], the Prob-Test was 0.0457. For the same compound, the Prob-Naive in test [3] was -0.463. The same compound displayed a Prob-Train in test [4] of -0.692.

For `Nc1nc(N)c2nc(-c3cccc(O)c3)c(-c3cccc(O)c3)nc2n1`, the OMR-Perf in test [1] is 0.248. This compound also had a Prob-Test in test [2] of 0.231. The Prob-Naive in test [3] was 0.471. This compound also displayed a Prob-Train in test [4] of 0.459.

As to `C[C@](N)(Cc1ccc(O)c(O)c1)C(=O)O` [Methyldopa (Aldomet)], the OMR-Perf in test [1] is -0.291. Besides, the Prob-Test in test [2] is -0.538. The Prob-Naive in test [3] stood at 0.448. This compound also showed a Prob-Train in test [4] of -0.347.

In test [1], `C=CC(=O)Nc1cccc(Nc2nc(Nc3ccc(OCCOC)cc3)ncc2F)c1` came in with an OMR-Perf of 0.226. The compound further gave a Prob-Test in test [2] of -0.591. In test [3], this compound gave a Prob-Naive of -0.801. The compound also displayed a Prob-Train in test [4] of -0.463.

`CC(/C=C1\SC(=S)N(CC(=O)O)C1=O)=C\c1ccccc1` [Epalrestat] returned an OMR-Perf in test [1] of -0.577. The compound also had a Prob-Test in test [2] of 0.146. The same compound came in with a Prob-Naive in test [3] of -0.6. Moreover, the Prob-Train in test [4] is -0.384.

Compound `CC(=O)c1c(C)c2cnc(Nc3ccc(N4CCNCC4)cn3)nc2n(C2CCCC2)c1=O.Cl` registered an OMR-Perf in test [1] of 0.431. The compound also came in with a Prob-Test in test [2] of -0.697. The Prob-Naive in test [3] stood at 0.35. This compound also displayed a Prob-Train in test [4] of 0.00477.
